Experimental data reported in PubChem BioAssay AID493179 (National Center for Advancing Translational Sciences (NCATS), 2011).
This list was built around the results that the source calls inconclusive (neither active nor inactive); the mix of calls is not that of the screen. Potencies beside an inconclusive call are fits to weak or partial responses and may not hold up. The source made the active and inactive calls. The call rests on the fitted dose curve; in most records, active means well fitted inhibition curve with a large enough effect; inconclusive means small, poorly fitted or top-dose-only effect; inactive means flat fitted curve, though single readings scatter.

Test: Secondary Assay for General miRNAs Modulators and/or Inhibitors/Activators of miR-21: miR-30 Firefly Luciferase Assay for second round cherrypicks
Conditions: HeLa miR-30 FLuc reporter, luminescence, 48 h; series mostly up to 38.3 µM
Excerpt: MLPCN Grant: 1 R21 NS059478-01 Assay Provider: Qihong Huang, The Wistar Institute NCGC Assay Overview: MicroRNAs (miRNAs) are endogenously encoded small (~20-25 nucleotides), nonprotein-coding RNAs that are involved in post-transcriptional repression of target messenger RNAs (mRNAs) (Le and Hannon, 2004). Estimated to be involved in the regulation of 30% of all protein-coding mRNAs (Filipowicz et al., 2008), miRNAs play a significant role in many biological processes including cellular differentiation and tissue development (Ghildiyal and Zamore, 2009). […] Compounds active in the miR-21 FLuc assay were clustered using Leadscope and active chemical series were prioritized based on chemical properties, potential for medicinal chemistry optimization, and SAR. Within each chemical series, representative compounds were re-acquired to test for activity in a secondary assay based on the quality of their CRC, efficacy, and potency. The secondary assay to determine if compounds active in the miR-21 FLuc assay were potentially specific for miR-21 and were not general modulators of the miRNA pathway was another cell-based FLuc reporter gene assay, this time targeting miR-30. Compounds found active in both the miR-21 FLuc and miR-30 FLuc assays are not considered miR-21 specific compounds, and may be general miRNA modulators.
NCGC Assay Protocol Summary: Reagents: HeLa cells stably expressing firefly luciferase (FLuc) under the control of a CMV promoter (upstream) and a miR-30 binding sequence directly downstream of the gene. These cells also stably express miR-30. Control compounds used were compound C3 (provided by collaborator), N6-phenyladenosine (MP Biomedicals, 0215379625), and DMSO. Assay Summary: 6uL of HeLa miR-30-FLuc cells in assay buffer (DMEM, Invitrogen #21063-029; 10% FBS, HyClone #SH30071.03) were dispensed at 1000cells/well (1.7 x 10^5 cells/mL) into Greiner solid-white TC-treated 1536-well plates using a Multidrop Combi (Thermo Fisher Scientific). Plates were incubated for one hour at 37 degree Celsius, 95% humidity, 5% CO2. These assay plates were then treated with 23nL of compound or DMSO using a Kalypsys pin tool, which allows for delivery of a 24-point titration of each compound to the assay plate, with a final compound concentration ranging from approximately 40uM to 5pM. Assay plates were then incubated for 48 hours. After incubation, plates were allowed to come to RT for one hour prior to delivery of 3uL of 3X luciferase detection reagent. After a 15 minute incubation to allow for cell lysis, luciferase activity was measured using a ViewLux CCD imager (PerkinElmer), with an average exposure time of 2-12 seconds. Keywords: NIH Roadmap, MLPCN, MLSMR, qHTS, miR-21, miR-30, microRNA, firefly luciferase, FLuc.

Structure (SMILES)	Potency
COc1ccc(C(=O)Nc2ccc3oc(-c4ccc(OC)cc4)nc3c2)cc1	inconclusive: 12.6 µM [inhibitor, partial curve]
COc1ccccc1N1CCN(C(=O)c2nc(-c3ccc(C)cc3)n3c2CCCCC3)CC1	inactive
COc1cc(OC)c(-c2nn3c(C4CCCCC4)nnc3s2)cc1OC	inconclusive: 25.2 µM [inhibitor, partial curve, poor fit]
C/C(=N/NC(=O)c1ccccc1)c1ccc(NC(=O)C(F)(F)F)cc1	inactive
COC(=O)c1ccccc1NC(=O)Nc1cc(C(C)(C)C)on1	inconclusive: 2.83 µM [inhibitor, full curve]
CCOc1ccc(-c2cc3c(=O)n(CC(=O)Nc4cc(F)ccc4C)ccn3n2)cc1	inconclusive: 1.79 µM [inhibitor, full curve]
CCC(C)NC(=O)CCCn1c(=O)c2cccn2c2ccccc21 (stereo not given)	inactive
CN(C)c1ccc(CNC(=O)C2COc3ccccc3C2)cc1 (stereo not given)	inactive
Cc1ccc2nc(N(CCCN(C)C)C(=O)c3ccco3)sc2c1	inconclusive: 12.6 µM [inhibitor, partial curve, poor fit]
O=C(NC1CCCCCC1)C1CCN(C(=O)N2CCOc3ccc(Cl)cc32)CC1	inactive
Cc1c(CCNC(=O)c2c(F)cccc2F)sc2nc(-c3ccc(F)cc3)nn12	inconclusive: 7.11 µM [inhibitor, full curve]
CCC(CC)C(=O)Nc1nnc(S(=O)(=O)N2CCCCCC2)s1	inactive
CC(=O)c1ccc(NC(=O)c2ncn(-c3ccccc3)n2)cc1	inconclusive: 8.95 µM [inhibitor, partial curve]
Cc1ccc(NC(=O)Nc2ccc(Cl)cc2)c(Br)c1	inconclusive: 11.3 µM [inhibitor, partial curve]
O=c1oc(Nc2cccc(Cl)c2)nc2ccccc12	inconclusive: 3.18 µM [inhibitor, full curve]
CC(=O)O[C@H]1C[C@@]2(C)[C@@H](C[C@@H](O)[C@H]3[C@@]4(C)CC[C@@H](O)[C@@H](C)C4CC[C@@]32C)/C1=C(\CCC=C(C)C)C(=O)O (stereo not given in full)	inactive
c1ccc(N2CCN(c3ncnc4[nH]ncc34)CC2)cc1	inconclusive: 14.2 µM [inhibitor, partial curve, poor fit]
O=C(NCc1cccc(F)c1)c1ccc2nc(N3CCCCC3)sc2c1	inconclusive: 11.3 µM [inhibitor, partial curve]

Filtered by structure, the compounds so far with sulfur (5)
Structure (SMILES)	Potency
COc1cc(OC)c(-c2nn3c(C4CCCCC4)nnc3s2)cc1OC	inconclusive: 25.2 µM [inhibitor, partial curve, poor fit]
Cc1ccc2nc(N(CCCN(C)C)C(=O)c3ccco3)sc2c1	inconclusive: 12.6 µM [inhibitor, partial curve, poor fit]
Cc1c(CCNC(=O)c2c(F)cccc2F)sc2nc(-c3ccc(F)cc3)nn12	inconclusive: 7.11 µM [inhibitor, full curve]
CCC(CC)C(=O)Nc1nnc(S(=O)(=O)N2CCCCCC2)s1	inactive
O=C(NCc1cccc(F)c1)c1ccc2nc(N3CCCCC3)sc2c1	inconclusive: 11.3 µM [inhibitor, partial curve]

More records.

Structure (SMILES)	Potency
COc1ccc(N2C(=O)c3ccccc3NC2c2ccc(OC)c(Cn3nnc4ccccc43)c2)cc1 (stereo not given)	inconclusive: 5.65 µM [inhibitor, partial curve]
CC(C)c1cc(C(=O)Nc2cccnc2)no1	active: 3.56 µM
CC(=O)N1CCN(c2nc3c(F)cc(F)cc3s2)CC1	inconclusive: 11.3 µM [inhibitor, partial curve]
CCn1c2ccccc2c2cc(NC(=O)N3CCOCC3)ccc21	inconclusive: 25.2 µM [inhibitor, single point]
CCCCN1CCc2c([nH]c3ccccc23)C1=O	active: 11.3 µM
COc1cc(Cl)c(C)cc1NC(=O)c1cc2ccc3cccnc3c2[nH]1	inconclusive: 5.04 µM [inhibitor, partial curve]
COCCNC(=O)c1ccc2c(c1)ncn2-c1ccc(F)c(F)c1	active: 22.5 µM
Cc1ccc(CNC(=O)Cc2csc3ccccc23)cc1	inconclusive: 25.2 µM [inhibitor, single point]
Cc1ccc2nc(-c3ccc(NC(=O)c4ccc(S(C)(=O)=O)cc4)cc3)sc2c1	inactive
CC(C)(C)CC(=O)Nc1nnc(-c2cccs2)s1	active: 5.04 µM
CCOC(=O)C1CCN(C(=O)c2ccc(-n3ccc4ccccc43)s2)CC1	active: 11.3 µM
Cc1c(-c2nsc(NC(=O)c3cccs3)n2)nnn1-c1ccc(Br)cc1	inconclusive: 4.49 µM [inhibitor, partial curve, poor fit]
CN(c1ccccc1)S(=O)(=O)c1nnc(NC(=O)c2ccco2)s1	inactive
Cc1cc(C)nc(Nc2nc3ccccc3o2)n1	inconclusive: 11.3 µM [inhibitor, partial curve]
Cc1ccc(-c2nc3ccc(Cl)cn3c2Nc2ccc3c(c2)OCCO3)o1	inconclusive: 0.634 µM [inhibitor, partial curve, poor fit]
COc1ccc(Cc2nnc(-c3cccc(C)c3)o2)cc1OC	inconclusive: 12.6 µM [inhibitor, partial curve, poor fit]
CC(C)(C)C1CCc2nc(NC(=O)Cc3ccc(Cl)cc3)sc2C1 (stereo not given)	inactive
